These are yes or no findings as the source states them, for the method shown. Binding seen in cells or lysates may run through a third protein. Some binding calls cover weakened binding; strength is not graded here.
Target: Gcn5 (Drosophila (endogenous in S2 cells)) (UniProt O76216)
Experiment: co-IP; rabbit anti-full-length Gcn5 on Protein A Dynabeads precipitates endogenous Gcn5 (SAGA); 1.5 mg nuclear extract of S2 cells transiently transfected with TRF2-S-Flag-HA or TRF2-L-Flag-HA, diluted to 0.15 M NaCl, overnight; washes with 150 mM NaCl, 0.2% Triton X-100; Western blot

The chains behind the UniProt entries cited, without tags or fusion partners.
UniProt O76216: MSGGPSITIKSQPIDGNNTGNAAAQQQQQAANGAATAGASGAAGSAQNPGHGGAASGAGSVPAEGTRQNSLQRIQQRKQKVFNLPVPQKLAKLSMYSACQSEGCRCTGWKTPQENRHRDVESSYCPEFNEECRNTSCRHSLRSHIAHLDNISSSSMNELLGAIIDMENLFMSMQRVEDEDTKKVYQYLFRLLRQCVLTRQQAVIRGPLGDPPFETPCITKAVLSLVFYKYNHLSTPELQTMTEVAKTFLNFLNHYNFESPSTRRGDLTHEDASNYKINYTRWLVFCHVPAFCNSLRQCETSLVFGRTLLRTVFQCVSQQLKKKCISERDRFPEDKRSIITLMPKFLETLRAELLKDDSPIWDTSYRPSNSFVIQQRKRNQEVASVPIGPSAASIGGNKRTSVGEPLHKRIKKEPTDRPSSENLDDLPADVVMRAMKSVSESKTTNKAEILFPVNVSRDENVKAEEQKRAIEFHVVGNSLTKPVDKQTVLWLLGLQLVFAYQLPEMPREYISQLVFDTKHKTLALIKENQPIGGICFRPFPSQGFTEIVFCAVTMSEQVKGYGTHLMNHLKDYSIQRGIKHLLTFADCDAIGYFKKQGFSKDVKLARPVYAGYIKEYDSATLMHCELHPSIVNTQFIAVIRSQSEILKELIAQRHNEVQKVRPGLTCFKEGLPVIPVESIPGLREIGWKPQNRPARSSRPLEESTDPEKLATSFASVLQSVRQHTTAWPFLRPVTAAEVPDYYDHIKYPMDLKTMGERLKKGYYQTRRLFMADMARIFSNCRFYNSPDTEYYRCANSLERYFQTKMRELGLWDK

binding: binds
B1: TATA Binding Protein (TBP) (protein, UniProt P20227 1-353)
chain: MDQMLSPNFSIPSIGTPLHQMEADQQIVANPVYHPPAVSQPDSLMPAPGSSSVQHQQQQQQSDASGGSGLFGHEPSLPLAHKQMQSYQPSASYQQQQQQQQLQSQAPGGGGSTPQSMMQPQTPQSMMAHMMPMSERSVGGSGAGGGGDALSNIHQTMGPSTPMTPATPGSADPGIVPQLQNIVSTVNLCCKLDLKKIALHARNAEYNPKRFAAVIMRIREPRTTALIFSSGKMVCTGAKSEDDSRLAARKYARIIQKLGFPAKFLDFKIQNMVGSCDVKFPIRLEGLVLTHCNFSSYEPELFPGLIYRMVRPRIVLLIFVSGKVVLTGAKVRQEIYDAFDKIFPILKKFKKQS

From publication PMC8648115
